Source: the supplement of paper PMC11006884
Shown are results outside the selection of targets with a hit, which stands elsewhere. The data scatter; read single values as rough. This is a selection; strong and weak results do not stand in their true shares.

Protein sequences, listed by entry. Tags and fused reporters are not part of them. Lines headed by an entry give the natural chain unless they say otherwise; changes in a name come on top.
UniProt Q13418: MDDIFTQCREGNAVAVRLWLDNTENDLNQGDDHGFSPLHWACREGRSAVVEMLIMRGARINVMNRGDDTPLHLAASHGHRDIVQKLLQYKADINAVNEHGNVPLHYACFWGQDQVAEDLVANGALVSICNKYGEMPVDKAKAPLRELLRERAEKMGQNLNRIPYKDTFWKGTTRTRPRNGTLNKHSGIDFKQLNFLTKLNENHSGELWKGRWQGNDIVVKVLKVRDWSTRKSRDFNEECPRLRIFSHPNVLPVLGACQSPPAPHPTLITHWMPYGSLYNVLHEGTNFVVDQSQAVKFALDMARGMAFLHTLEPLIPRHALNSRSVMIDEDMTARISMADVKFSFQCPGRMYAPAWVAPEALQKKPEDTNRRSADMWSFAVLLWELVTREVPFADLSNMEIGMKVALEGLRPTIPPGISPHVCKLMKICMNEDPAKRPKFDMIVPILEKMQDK
UniProt Q12789: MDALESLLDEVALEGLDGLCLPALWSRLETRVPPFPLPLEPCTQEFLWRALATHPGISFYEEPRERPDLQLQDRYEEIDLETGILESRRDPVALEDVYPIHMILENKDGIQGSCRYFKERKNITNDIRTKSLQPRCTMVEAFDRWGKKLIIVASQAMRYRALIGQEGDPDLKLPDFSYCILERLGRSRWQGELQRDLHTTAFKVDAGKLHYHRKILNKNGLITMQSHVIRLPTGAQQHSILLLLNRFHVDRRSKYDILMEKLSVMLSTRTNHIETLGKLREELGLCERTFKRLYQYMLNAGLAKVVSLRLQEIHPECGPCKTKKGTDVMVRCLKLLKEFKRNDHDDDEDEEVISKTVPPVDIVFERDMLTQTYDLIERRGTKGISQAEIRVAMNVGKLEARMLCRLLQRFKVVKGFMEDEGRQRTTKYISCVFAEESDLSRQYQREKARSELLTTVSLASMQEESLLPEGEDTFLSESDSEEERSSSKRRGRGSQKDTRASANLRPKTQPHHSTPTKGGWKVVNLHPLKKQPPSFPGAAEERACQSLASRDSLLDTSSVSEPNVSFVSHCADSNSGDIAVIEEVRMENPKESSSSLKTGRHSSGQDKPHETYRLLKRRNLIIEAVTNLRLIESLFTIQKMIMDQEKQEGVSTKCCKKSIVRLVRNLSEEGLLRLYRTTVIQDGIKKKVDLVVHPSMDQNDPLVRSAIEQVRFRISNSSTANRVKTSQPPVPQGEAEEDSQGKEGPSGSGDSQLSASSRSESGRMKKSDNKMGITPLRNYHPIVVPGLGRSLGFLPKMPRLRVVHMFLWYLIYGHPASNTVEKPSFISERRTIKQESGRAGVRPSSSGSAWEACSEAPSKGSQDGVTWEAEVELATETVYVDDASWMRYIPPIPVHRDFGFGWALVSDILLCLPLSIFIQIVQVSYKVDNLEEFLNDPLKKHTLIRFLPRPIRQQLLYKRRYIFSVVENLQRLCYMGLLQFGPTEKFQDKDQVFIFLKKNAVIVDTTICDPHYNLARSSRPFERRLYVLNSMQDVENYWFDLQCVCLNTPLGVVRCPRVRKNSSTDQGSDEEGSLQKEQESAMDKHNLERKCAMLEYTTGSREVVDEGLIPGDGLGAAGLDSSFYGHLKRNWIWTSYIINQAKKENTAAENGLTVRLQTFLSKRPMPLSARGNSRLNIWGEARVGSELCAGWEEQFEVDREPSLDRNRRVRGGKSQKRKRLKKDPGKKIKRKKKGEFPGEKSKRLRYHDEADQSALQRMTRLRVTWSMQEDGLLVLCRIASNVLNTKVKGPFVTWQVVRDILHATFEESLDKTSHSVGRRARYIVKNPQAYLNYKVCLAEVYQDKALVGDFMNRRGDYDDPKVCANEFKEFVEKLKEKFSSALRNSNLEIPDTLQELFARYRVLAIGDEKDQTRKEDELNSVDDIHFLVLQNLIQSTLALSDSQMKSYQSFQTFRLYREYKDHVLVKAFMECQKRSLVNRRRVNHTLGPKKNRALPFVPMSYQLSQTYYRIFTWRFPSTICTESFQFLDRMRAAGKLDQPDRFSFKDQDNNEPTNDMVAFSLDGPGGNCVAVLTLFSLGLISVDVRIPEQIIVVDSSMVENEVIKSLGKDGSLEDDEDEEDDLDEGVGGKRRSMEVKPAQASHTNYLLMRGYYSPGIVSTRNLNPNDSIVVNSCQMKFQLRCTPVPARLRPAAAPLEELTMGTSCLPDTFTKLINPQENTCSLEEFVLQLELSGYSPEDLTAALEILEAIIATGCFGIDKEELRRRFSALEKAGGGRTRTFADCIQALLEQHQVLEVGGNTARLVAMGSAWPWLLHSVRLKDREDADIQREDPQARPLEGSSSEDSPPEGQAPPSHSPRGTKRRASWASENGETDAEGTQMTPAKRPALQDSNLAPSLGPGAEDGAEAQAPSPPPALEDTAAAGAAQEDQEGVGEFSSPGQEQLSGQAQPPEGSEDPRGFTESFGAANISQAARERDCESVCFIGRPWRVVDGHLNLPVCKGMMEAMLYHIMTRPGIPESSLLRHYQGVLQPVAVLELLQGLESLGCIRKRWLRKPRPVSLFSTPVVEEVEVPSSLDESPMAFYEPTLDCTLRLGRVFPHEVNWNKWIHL
UniProt Q13111, whole entry, looked up: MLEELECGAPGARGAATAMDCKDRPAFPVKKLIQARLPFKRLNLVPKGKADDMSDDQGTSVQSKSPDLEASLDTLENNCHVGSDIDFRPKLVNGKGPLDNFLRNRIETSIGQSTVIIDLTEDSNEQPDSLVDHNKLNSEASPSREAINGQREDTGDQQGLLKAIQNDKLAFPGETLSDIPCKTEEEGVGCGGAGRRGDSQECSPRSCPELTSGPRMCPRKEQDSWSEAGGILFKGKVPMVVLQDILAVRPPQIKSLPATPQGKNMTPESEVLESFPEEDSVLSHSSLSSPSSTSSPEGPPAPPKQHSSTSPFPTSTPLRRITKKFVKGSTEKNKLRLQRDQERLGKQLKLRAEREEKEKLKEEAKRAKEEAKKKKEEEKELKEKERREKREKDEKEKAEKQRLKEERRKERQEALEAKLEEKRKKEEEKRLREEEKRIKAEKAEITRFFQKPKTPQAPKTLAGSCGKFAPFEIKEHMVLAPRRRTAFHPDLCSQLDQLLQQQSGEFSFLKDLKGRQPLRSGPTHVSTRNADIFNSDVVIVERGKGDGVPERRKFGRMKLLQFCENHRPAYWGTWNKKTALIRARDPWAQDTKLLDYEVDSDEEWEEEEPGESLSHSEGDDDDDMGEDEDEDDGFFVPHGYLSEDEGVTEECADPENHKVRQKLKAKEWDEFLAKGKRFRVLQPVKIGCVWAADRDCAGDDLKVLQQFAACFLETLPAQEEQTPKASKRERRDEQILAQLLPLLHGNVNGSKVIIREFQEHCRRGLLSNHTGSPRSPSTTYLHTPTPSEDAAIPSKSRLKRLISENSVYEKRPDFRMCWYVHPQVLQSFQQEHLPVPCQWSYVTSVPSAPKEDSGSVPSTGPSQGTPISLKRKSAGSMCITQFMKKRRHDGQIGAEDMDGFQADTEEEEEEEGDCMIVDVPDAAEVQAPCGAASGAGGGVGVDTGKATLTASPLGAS
UniProt Q07955, whole entry, looked up: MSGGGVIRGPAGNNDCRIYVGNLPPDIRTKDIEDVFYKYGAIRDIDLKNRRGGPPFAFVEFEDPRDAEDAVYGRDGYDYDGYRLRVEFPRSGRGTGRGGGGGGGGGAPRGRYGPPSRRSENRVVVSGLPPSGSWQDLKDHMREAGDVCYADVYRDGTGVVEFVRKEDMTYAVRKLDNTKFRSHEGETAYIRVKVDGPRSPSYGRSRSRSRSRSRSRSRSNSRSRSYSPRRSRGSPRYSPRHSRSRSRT
UniProt Q13057: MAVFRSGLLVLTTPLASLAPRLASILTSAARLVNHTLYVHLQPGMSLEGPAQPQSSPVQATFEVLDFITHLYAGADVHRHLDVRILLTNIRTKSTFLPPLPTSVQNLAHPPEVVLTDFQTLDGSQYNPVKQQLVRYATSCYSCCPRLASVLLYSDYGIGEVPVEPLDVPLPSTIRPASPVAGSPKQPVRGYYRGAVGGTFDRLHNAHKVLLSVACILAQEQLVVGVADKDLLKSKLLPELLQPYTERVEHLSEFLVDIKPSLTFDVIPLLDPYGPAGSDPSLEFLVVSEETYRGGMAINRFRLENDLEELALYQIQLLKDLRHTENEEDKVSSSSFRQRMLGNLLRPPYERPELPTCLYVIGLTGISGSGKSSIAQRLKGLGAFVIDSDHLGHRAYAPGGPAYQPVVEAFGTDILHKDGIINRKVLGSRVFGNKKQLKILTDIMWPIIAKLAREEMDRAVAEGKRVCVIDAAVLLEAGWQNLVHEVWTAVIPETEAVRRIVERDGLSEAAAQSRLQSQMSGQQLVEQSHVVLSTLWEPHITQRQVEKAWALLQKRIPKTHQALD
UniProt Q12788: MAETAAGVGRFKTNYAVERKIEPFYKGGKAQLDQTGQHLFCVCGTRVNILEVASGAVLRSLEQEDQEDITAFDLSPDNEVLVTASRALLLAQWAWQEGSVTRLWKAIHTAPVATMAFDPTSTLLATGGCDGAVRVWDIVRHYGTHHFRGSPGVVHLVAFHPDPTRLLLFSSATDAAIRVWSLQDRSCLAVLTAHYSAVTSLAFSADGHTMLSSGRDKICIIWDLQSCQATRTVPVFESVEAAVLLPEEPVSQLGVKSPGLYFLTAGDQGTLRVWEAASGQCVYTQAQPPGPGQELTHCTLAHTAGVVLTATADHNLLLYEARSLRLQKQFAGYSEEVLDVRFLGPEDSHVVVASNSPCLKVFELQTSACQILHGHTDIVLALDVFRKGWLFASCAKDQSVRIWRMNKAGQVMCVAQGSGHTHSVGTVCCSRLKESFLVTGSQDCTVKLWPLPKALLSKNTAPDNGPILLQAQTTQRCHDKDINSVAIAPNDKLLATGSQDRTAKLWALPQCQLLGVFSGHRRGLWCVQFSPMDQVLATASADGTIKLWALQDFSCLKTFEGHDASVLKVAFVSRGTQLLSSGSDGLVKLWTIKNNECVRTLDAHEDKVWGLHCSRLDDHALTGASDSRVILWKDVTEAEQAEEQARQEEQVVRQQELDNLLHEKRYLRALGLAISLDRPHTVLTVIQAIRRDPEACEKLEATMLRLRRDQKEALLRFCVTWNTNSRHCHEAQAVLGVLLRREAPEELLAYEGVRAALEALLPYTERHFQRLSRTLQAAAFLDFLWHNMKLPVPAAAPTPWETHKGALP
UniProt Q13263: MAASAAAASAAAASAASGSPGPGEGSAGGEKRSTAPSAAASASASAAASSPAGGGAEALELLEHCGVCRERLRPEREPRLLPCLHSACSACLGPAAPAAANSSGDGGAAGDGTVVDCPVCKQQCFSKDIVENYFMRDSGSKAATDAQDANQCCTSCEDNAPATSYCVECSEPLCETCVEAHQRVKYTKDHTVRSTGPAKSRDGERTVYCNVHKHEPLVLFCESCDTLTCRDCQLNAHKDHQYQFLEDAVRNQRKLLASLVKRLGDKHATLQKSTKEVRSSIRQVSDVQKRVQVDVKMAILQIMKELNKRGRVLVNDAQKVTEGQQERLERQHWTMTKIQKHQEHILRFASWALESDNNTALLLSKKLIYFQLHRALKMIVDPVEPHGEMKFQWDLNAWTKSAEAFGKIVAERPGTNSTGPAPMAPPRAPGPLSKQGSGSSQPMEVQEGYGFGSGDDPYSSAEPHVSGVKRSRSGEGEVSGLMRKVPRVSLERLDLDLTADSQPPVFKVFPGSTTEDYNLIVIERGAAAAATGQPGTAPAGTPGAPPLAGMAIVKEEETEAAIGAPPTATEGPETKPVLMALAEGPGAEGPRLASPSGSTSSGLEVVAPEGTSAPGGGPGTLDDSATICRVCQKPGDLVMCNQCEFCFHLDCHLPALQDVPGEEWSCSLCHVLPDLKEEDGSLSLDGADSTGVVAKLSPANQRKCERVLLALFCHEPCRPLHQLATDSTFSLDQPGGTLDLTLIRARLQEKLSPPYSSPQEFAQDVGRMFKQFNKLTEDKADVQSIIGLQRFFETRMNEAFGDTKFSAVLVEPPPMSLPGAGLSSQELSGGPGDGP
UniProt Q03252: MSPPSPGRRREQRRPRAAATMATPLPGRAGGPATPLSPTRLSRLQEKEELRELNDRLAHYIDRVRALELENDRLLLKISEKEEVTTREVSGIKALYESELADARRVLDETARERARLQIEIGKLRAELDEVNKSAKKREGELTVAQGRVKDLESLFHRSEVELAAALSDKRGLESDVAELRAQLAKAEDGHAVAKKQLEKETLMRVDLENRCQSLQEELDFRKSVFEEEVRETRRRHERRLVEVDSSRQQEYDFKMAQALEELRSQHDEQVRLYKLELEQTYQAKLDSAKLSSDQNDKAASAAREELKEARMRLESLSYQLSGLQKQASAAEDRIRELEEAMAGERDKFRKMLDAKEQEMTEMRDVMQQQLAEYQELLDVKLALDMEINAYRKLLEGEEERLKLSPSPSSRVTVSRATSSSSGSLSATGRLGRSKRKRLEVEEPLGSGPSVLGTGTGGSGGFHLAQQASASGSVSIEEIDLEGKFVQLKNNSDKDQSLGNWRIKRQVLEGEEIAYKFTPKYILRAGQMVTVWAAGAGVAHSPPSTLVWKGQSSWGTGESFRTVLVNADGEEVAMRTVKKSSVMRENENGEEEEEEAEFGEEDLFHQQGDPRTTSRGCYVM

Compound: COC(=O)/C=C/c1ccccc1 [methyl cinnamate]
Assay: log2 ratio of iodoacetamide-alkyne labeling of the cysteine site, DMSO over compound (competition); higher = stronger covalent engagement of the cysteine by the compound, active = 1 or more
Conditions: 500 µM; treatment time 1 h; system: HEK293T cell lysate
Outline: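 HEK293T lysate (2 mg/mL) was incubated with electrophile (500 µM) or vehicle for 1 h at ambient temperature and then with iodoacetamide alkyne for 1 h. Labelled proteins were clicked to sCIP-TMT reagents, pooled, digested, enriched on streptavidin and measured by Orbitrap Eclipse LC-MS/MS with FAIMS, with FragPipe quantification. The per-cysteine log2 competition ratio is mean control-channel reporter intensity over mean compound-channel reporter intensity. Across three replicates with duplicate channels, cysteines quantified in only one replicate were excluded.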

log2 ratio of iodoacetamide-alkyne labeling, inactive:
ILK C422 (UniProt Q13418) 0.00864
NSUN2 C502 (UniProt Q08J23) 0.58
GTF3C1 C1681 (UniProt Q12789) 0.105
FKBP4 C396 (UniProt Q02790) 0.328
PDCL C35 (UniProt Q13371) 0.0618
EXOSC9 C9 (UniProt Q06265) 0.197
PSMD2 C251 (UniProt Q13200) 0.222
CHAF1A C79 (UniProt Q13111) -0.0967
UniProt Q13243_C63 0.0385
UniProt Q12948_C529 0.0687
ROCK1 C1206 (UniProt Q13464) 0.327
DST C5527 (UniProt Q03001) 0.176
UniProt Q02750_C277 -0.0945
POLE C2148 (UniProt Q07864) -0.109
ILF3 C295 (UniProt Q12906) -0.00722
UniProt Q07955_C16 0.263
TLE1 C526 (UniProt Q04724) 0.117
COASY C140 (UniProt Q13057) 0.134
TBL3 C696 (UniProt Q12788) 0.105
UniProt Q08117_C89 0.29
TRIM28 C713 (UniProt Q13263) -0.355
EEF1A2 C411 (UniProt Q05639) 0.115
ILF3 C255 (UniProt Q12906) -0.0371
AKAP12 C1521 (UniProt Q02952) 0.357
LMNB2 C212 (UniProt Q03252) 0.16
TP53BP1 C1703 (UniProt Q12888) 0.31
COASY C357 (UniProt Q13057) -0.00705
CHAF1A C21 (UniProt Q13111) 0.284
CHAF1A C181 (UniProt Q13111) -0.0613
ATM C755 (UniProt Q13315) 0.0955
AKAP12 C1139 (UniProt Q02952) 0.135
CHD3 C1464 (UniProt Q12873) 0.189
ILK C239 (UniProt Q13418) 0.231
TARDBP C39 (UniProt Q13148) 0.0573
CDC20 C364 (UniProt Q12834) 0.221
UniProt Q09028_C203 0.107
EIF4G1 C934 (UniProt Q04637) 0.0434

As a short view, part of the list above:
log2 ratio of iodoacetamide-alkyne labeling, inactive:
FKBP4 C396 (UniProt Q02790) 0.328
PDCL C35 (UniProt Q13371) 0.0618
